This is an account of results in PMC8384837.

The other results are listed elsewhere or left out. For some of these results: At the low end of the ranking, values are background and their order means little. For some of these results: Construct or isoform of the protein are uncertain.

The target in the first experiment is T1, PUM1 PUF domain R3-THE R4-TFR R7-NPG C935T + R936H + Q939E + N971T + H972F + Q975R + S1079N + N1080P + E1083G (UniProt Q14671).
T1 sequence: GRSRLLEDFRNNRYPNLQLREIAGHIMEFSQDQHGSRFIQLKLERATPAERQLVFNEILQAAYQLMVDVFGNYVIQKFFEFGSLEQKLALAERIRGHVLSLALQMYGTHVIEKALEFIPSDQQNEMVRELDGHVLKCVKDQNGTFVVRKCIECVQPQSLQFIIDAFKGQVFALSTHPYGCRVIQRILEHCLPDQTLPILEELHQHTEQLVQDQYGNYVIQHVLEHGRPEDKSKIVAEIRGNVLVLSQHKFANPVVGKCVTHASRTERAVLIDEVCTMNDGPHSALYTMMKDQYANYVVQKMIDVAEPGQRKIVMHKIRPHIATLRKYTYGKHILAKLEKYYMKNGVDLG
As to conditions: yeast three-hybrid, YBZ-1, SC-Leu-His + 0.5 mM 3-AT, 4 days.
Turning to “GGCUAGAACUAGUGGAUCCCCCGGCGCCCGGCGGCUCGAGCCCGGGUAAGUGGUCGUAGUCUGCAUGCCGCCGGGCGCCAUGCCUGCAGGUCGACUCUAGAAAACAUG”, the binding signal (log2 enrichment (interaction score)) was -2.24.

Consider “GGCUAGAACUAGUGGAUCCCCCGGCGCCCGGCGGCUCGAGCCCGGGUAAGUUAAAUGAGUCUGCAUGCCGCCGGGCGCCAUGCCUGCAGGUCGACUCUAGAAAACAUG”, for which the binding signal (log2 enrichment (interaction score)) is less than -2.43. Still for that read-out and setting: the figure for “GGCUAGAACUAGUGGAUCCCCCGGCGCCCGGCGGCUCGAGCCCGGGUAAGUUUAAAACGUCUGCAUGCCGCCGGGCGCCAUGCCUGCAGGUCGACUCUAGAAAACAUG” is -2.08.

Regarding “GGCUAGAACUAGUGGAUCCCCCGGCGCCCGGCGGCUCGAGCCCGGGUAAGGUGACUUGGUCUGCAUGCCGCCGGGCGCCAUGCCUGCAGGUCGACUCUAGAAAACAUG”, the binding signal (log2 enrichment (interaction score)) was less than -3.26. On the same count and under the same terms, the figure for “GGCUAGAACUAGUGGAUCCCCCGGCGCCCGGCGGCUCGAGCCCGGGUAAGCUAGAUAAGUCUGCAUGCCGCCGGGCGCCAUGCCUGCAGGUCGACUCUAGAAAACAUG” is -2.12.

The target of a further experiment is T2, PUM1 PUF domain R5-PHQ R6-SWD C1007P + R1008H + N1043S + Y1044W + Q1047D (UniProt Q14671).
T2 sequence: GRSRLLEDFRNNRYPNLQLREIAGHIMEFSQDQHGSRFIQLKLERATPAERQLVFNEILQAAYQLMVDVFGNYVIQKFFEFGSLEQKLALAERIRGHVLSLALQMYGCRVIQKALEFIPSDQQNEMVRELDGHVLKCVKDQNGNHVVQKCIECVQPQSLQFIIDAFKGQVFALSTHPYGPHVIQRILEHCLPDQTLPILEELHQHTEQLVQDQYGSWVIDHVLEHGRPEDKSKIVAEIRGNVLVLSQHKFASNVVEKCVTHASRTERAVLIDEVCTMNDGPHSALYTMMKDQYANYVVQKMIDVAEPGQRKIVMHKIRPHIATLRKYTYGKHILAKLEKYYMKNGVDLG
As to conditions: yeast three-hybrid, YBZ-1, SC-Leu-His + 0.5 mM 3-AT, 4 days.
Consider “GGCUAGAACUAGUGGAUCCCCCGGCGCCCGGCGGCUCGAGCCCGGGUAAGUGUAGGUAGUCUGCAUGCCGCCGGGCGCCAUGCCUGCAGGUCGACUCUAGAAAACAUG”, for which the binding signal (log2 enrichment (interaction score)) is less than -7.61. For the sequence “GGCUAGAACUAGUGGAUCCCCCGGCGCCCGGCGGCUCGAGCCCGGGUAAGUGGUCGUAGUCUGCAUGCCGCCGGGCGCCAUGCCUGCAGGUCGACUCUAGAAAACAUG”, the binding signal (log2 enrichment (interaction score)) is -8.49. “GGCUAGAACUAGUGGAUCCCCCGGCGCCCGGCGGCUCGAGCCCGGGUAAGUUGCUAUAGUCUGCAUGCCGCCGGGCGCCAUGCCUGCAGGUCGACUCUAGAAAACAUG”: the binding signal (log2 enrichment (interaction score)) is -7.82. Regarding “GGCUAGAACUAGUGGAUCCCCCGGCGCCCGGCGGCUCGAGCCCGGGUAAGCAGAUAUAGUCUGCAUGCCGCCGGGCGCCAUGCCUGCAGGUCGACUCUAGAAAACAUG”, the binding signal (log2 enrichment (interaction score)) is less than -7.42. For the sequence “GGCUAGAACUAGUGGAUCCCCCGGCGCCCGGCGGCUCGAGCCCGGGUAAGCAUAAUUAGUCUGCAUGCCGCCGGGCGCCAUGCCUGCAGGUCGACUCUAGAAAACAUG”, the binding signal (log2 enrichment (interaction score)) was less than -7.46. On the same count and under the same terms, the figure for “GGCUAGAACUAGUGGAUCCCCCGGCGCCCGGCGGCUCGAGCCCGGGUAAGGGGCAAAAGUCUGCAUGCCGCCGGGCGCCAUGCCUGCAGGUCGACUCUAGAAAACAUG” is less than -8.13; for “GGCUAGAACUAGUGGAUCCCCCGGCGCCCGGCGGCUCGAGCCCGGGUAAGUUGACAUUGUCUGCAUGCCGCCGGGCGCCAUGCCUGCAGGUCGACUCUAGAAAACAUG” it is -6.65. With “GGCUAGAACUAGUGGAUCCCCCGGCGCCCGGCGGCUCGAGCCCGGGUAAGUUAAAUGAGUCUGCAUGCCGCCGGGCGCCAUGCCUGCAGGUCGACUCUAGAAAACAUG”, the binding signal (log2 enrichment (interaction score)) is -8. Same read-out and setting: with “GGCUAGAACUAGUGGAUCCCCCGGCGCCCGGCGGCUCGAGCCCGGGUAAGUUGCGAAAGUCUGCAUGCCGCCGGGCGCCAUGCCUGCAGGUCGACUCUAGAAAACAUG” the figure was less than -8.45; with “GGCUAGAACUAGUGGAUCCCCCGGCGCCCGGCGGCUCGAGCCCGGGUAAGUUUAAAACGUCUGCAUGCCGCCGGGCGCCAUGCCUGCAGGUCGACUCUAGAAAACAUG”, -8.38; with “GGCUAGAACUAGUGGAUCCCCCGGCGCCCGGCGGCUCGAGCCCGGGUAAGUGGACAGAGUCUGCAUGCCGCCGGGCGCCAUGCCUGCAGGUCGACUCUAGAAAACAUG”, -8.13.
